Measurements taken from the supplement of paper PMC12067093, “Discovery and optimisation of a covalent ligand for TRIM25 and its application to targeted protein ubiquitination” (Chemical Science, 2025).
The list shows a part of the results.

By UniProt entry, the sequences of proteins in these tests, tags left out. Where a name states a change or a piece, a line headed by the entry shows the natural chain unless it says otherwise.
UniProt Q9P2D3: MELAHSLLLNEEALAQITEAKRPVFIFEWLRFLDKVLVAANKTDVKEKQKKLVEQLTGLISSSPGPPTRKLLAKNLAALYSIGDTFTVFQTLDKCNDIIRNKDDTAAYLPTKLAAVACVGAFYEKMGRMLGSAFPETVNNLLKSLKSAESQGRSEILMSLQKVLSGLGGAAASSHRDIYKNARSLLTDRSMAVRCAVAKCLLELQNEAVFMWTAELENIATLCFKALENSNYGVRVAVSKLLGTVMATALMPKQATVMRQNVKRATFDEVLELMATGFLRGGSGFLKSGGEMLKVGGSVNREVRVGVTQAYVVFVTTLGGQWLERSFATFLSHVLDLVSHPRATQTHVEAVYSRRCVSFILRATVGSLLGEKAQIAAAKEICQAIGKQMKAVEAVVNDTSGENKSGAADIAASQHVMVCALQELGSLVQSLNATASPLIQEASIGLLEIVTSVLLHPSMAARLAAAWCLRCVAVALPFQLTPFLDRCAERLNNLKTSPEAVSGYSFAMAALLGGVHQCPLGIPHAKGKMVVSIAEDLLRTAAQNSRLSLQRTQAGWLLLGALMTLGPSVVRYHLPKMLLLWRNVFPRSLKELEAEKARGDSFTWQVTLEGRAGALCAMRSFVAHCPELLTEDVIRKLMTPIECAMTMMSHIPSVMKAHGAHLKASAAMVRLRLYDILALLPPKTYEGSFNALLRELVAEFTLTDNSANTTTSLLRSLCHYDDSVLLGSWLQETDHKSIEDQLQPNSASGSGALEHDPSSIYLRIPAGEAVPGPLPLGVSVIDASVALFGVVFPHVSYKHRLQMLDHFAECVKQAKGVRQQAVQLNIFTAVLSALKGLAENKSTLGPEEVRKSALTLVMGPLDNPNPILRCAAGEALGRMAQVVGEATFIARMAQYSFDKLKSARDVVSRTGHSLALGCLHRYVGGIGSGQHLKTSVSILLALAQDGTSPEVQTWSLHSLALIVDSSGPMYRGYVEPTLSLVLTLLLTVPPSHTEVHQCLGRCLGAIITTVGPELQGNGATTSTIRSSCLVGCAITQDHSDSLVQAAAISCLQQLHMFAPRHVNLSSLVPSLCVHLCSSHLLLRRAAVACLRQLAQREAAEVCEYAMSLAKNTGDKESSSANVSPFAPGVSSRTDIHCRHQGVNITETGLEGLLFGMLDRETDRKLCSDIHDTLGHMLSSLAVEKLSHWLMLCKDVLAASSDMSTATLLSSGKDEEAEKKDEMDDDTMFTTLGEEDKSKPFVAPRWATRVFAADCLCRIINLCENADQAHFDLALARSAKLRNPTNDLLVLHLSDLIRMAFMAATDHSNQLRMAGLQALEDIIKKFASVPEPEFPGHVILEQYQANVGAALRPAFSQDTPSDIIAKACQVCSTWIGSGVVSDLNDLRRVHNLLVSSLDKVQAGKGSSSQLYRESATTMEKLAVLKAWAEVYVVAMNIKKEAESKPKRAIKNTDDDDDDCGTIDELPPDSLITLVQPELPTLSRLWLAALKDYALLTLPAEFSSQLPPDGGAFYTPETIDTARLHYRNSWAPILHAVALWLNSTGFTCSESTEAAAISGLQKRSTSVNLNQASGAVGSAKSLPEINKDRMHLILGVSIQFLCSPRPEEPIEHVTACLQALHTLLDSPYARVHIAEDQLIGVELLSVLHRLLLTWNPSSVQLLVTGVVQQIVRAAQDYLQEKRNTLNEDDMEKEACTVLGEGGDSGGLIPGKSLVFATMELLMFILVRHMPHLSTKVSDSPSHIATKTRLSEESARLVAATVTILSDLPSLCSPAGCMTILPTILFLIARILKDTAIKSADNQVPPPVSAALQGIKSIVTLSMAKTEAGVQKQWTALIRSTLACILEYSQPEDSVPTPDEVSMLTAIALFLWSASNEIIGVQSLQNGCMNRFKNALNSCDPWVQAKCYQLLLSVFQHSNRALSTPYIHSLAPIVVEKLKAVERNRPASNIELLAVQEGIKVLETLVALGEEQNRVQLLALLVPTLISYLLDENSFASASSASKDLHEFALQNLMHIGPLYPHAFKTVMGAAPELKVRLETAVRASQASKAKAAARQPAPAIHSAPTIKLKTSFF
UniProt P52789: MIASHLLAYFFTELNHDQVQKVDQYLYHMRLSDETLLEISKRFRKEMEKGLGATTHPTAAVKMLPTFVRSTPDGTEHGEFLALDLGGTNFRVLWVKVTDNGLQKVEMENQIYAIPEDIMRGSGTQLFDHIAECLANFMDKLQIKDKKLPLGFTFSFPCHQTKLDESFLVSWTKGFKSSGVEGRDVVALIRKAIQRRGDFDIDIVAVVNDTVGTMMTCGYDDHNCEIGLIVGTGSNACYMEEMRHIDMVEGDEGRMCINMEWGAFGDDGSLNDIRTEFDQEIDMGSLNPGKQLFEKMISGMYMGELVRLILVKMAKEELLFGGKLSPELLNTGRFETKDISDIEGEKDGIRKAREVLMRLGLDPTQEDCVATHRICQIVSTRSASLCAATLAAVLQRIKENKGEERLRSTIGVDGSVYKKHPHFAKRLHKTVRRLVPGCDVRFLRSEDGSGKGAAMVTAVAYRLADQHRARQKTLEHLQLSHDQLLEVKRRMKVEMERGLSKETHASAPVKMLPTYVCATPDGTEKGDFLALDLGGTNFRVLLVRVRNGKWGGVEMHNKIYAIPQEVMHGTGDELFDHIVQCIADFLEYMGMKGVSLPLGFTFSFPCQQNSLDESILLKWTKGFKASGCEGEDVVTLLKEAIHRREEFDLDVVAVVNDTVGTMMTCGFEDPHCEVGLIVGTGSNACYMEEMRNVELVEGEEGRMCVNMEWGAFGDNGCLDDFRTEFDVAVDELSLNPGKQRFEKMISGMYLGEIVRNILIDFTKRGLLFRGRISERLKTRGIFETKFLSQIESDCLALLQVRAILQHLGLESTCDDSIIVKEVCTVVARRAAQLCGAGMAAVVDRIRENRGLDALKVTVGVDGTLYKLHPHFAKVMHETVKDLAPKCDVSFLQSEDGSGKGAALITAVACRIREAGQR
UniProt P08631: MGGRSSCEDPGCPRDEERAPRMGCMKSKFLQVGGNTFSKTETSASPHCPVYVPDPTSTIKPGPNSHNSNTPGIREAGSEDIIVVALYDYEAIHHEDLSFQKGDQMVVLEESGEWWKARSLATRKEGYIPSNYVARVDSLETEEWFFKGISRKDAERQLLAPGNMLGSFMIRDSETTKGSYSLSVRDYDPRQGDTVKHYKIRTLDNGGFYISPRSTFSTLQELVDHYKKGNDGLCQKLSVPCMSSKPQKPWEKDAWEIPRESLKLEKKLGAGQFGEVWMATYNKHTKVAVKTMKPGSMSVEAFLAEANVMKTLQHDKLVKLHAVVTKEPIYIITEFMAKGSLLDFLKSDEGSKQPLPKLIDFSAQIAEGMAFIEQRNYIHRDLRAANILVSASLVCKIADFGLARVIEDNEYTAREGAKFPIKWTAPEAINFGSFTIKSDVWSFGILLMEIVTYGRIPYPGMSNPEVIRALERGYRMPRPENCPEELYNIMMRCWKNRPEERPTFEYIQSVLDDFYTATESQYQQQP
UniProt O14964, whole entry, looked up: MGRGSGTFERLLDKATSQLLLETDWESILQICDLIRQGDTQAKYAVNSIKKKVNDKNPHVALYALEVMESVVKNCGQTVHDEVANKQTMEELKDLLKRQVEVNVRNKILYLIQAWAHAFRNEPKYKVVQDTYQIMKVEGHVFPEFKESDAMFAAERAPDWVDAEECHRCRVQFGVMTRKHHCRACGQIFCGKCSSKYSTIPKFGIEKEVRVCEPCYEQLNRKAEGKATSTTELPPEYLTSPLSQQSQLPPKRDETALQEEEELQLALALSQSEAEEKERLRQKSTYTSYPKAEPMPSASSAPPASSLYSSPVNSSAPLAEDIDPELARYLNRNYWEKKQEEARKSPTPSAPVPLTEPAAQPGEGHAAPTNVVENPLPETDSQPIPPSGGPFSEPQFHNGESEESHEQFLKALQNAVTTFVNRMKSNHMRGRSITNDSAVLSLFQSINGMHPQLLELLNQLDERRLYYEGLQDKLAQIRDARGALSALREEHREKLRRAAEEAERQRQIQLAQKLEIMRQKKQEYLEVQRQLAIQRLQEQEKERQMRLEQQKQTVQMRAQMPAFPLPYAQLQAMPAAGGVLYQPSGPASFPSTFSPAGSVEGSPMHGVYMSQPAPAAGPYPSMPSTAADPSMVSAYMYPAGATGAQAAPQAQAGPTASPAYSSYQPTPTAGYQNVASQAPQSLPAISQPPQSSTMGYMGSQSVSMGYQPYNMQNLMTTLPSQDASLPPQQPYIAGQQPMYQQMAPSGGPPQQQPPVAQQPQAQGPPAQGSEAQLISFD
UniProt Q13547, whole entry, looked up: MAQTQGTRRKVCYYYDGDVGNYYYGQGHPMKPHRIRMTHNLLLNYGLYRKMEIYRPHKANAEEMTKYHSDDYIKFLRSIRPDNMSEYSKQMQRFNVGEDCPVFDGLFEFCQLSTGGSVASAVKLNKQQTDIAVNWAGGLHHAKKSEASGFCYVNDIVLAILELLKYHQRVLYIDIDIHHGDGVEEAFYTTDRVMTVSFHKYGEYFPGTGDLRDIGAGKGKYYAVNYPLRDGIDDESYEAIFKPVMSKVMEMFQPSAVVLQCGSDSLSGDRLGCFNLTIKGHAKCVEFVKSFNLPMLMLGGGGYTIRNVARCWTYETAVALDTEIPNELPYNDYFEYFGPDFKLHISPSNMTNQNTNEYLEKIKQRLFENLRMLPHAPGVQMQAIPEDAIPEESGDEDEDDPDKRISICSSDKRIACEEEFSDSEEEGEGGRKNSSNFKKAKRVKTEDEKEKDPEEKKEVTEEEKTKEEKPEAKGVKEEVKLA
UniProt Q01581: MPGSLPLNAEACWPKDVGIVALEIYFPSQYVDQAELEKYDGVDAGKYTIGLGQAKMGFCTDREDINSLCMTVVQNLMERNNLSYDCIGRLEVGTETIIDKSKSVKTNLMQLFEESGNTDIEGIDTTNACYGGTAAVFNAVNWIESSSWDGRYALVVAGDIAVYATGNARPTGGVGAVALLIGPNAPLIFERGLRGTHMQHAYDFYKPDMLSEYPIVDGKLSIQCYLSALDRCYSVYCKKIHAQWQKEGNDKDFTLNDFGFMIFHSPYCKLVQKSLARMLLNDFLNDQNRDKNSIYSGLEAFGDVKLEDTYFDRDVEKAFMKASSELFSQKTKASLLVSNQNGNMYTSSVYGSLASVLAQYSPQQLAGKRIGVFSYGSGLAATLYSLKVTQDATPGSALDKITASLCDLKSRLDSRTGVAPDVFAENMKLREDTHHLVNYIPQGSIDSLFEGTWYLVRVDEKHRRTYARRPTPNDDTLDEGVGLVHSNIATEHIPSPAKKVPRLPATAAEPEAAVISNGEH
UniProt P19367: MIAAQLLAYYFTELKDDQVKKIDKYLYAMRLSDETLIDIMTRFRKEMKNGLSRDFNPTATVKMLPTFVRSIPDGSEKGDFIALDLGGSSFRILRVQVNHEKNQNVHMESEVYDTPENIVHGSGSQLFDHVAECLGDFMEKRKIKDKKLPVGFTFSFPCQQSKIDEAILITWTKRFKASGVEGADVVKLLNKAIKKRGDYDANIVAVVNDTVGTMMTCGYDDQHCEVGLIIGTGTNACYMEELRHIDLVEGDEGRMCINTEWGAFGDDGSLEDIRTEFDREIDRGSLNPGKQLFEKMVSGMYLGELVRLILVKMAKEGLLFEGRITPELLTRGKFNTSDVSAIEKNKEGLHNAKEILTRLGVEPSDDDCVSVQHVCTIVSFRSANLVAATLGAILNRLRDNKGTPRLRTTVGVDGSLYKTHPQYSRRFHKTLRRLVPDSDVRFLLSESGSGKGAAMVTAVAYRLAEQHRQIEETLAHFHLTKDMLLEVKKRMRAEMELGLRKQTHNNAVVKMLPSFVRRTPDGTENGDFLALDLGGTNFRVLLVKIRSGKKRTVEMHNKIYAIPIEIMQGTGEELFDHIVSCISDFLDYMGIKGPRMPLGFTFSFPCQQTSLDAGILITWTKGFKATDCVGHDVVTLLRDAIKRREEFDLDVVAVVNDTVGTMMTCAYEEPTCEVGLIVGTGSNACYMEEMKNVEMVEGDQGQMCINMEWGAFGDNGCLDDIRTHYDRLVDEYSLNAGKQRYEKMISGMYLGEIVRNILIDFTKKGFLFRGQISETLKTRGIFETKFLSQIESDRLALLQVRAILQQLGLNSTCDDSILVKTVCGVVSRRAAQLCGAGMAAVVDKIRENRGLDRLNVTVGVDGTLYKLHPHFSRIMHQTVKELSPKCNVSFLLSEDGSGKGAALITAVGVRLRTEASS
UniProt Q7Z4H3: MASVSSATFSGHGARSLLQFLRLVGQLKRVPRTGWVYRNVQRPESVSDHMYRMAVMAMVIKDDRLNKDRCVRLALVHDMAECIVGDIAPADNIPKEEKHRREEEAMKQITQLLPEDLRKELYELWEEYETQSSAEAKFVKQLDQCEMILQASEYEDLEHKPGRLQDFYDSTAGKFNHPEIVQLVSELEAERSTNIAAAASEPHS
UniProt Q9NQE9: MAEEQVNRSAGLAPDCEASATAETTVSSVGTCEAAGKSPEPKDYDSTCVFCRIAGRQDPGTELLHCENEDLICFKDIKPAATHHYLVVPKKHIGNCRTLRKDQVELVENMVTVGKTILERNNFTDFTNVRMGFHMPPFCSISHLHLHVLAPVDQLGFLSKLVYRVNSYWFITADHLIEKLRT

Compound: Cc1cc(ccc1-c1ccccc1)C(=O)N1CCCN(CC1)C(=O)CCl [compound 10]
Test: probe-labelled cysteine peptide fold change vs DMSO (competition) (log2 fold change); higher = less target engagement (more negative = stronger competition)
Settings: THP-1, incubation time: 4 h
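Also: competitive profiling in live THP-1 cells: cysteine peptides tagged with an iodoacetamide desthiobiotin (IA-DTB) probe, intensity after compound treatment relative to DMSO-treated cells.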

| Target | probe-labelled cysteine peptide fold change (10 µM) | probe-labelled cysteine peptide fold change (50 µM) |
| --- | --- | --- |
| HECTD4_Q9Y4D8_2036_DGAWTNPVGTCLFHNNGR (UniProt Q9Y4D8) | 0.0956 | 0.212 |
| HEATR5B_Q9P2D3_616_AGALCAMR (UniProt Q9P2D3) | -0.0388 | -0.0489 |
| HMGXB3_Q12766_800_TCGLKPSTLK (UniProt Q12766) | -0.277 | -0.603 |
| HMGXB4_Q9UGU5_418_NMSAYQVFCK (UniProt Q9UGU5) | 0.05 | 0.304 |
| HDAC5_Q9UQL6_696_HQCMCGNTHVHPEHAGR (UniProt Q9UQL6) | 0.0181 | 0.0687 |
| HDAC8_Q9BY41_153_KDEASGFCYLNDAVLGILR (UniProt Q9BY41) | -0.0393 | 0.0564 |
| HIRIP3_Q9BW71_449+450_LLGSCCSHK (UniProt Q9BW71) | 0.225 | -0.859 |
| HK2_P52789_133_GSGTQLFDHIAECLANFMDK (UniProt P52789) | 0.194 | 0.635 |
| HCK_P08631_234_GNDGLCQK (UniProt P08631) | -0.166 | -0.0705 |
| HELZ_P42694_80_NYVQADEDCR (UniProt P42694) | 0.0451 | 0.15 |
| HGS_O14964_75_NCGQTVHDEVANK (UniProt O14964) | 0.223 | 0.299 |
| HECTD1_Q9ULT8_1127_DNSALNCHSNDDK (UniProt Q9ULT8) | -0.209 | -0.0644 |
| HLCS_P50747_375_EILTTLGLSCDMK (UniProt P50747) | -0.0627 | -0.0933 |
| HDAC1_Q13547_12_KVCYYYDGDVGNYYYGQGHPMKPHR (UniProt Q13547) | -0.223 | -0.882 |
| HDAC9_Q9UKV0_534_SDSSACVDDTLGQVGAVK (UniProt Q9UKV0) | 0.0654 | -0.0512 |
| HK2_P52789_628_ASGCEGEDVVTLLK (UniProt P52789) | -0.105 | 0.156 |
| HMGCS1_Q01581_224_LSIQCYLSALDR (UniProt Q01581) | -0.0461 | 0.0606 |
| HMGCS1_Q01581_268_DFTLNDFGFMIFHSPYCK (UniProt Q01581) | -0.0231 | -0.138 |

| Target | probe-labelled cysteine peptide fold change (10 µM) | probe-labelled cysteine peptide fold change (50 µM) |
| --- | --- | --- |
| HERC2_O95714_3193_GGSEGCNIPQNIER (UniProt O95714) | 0.0332 | 0.0875 |
| HLA-E_P13747_280_YTCHVQHEGLPEPVTLR (UniProt P13747) | -0.061 | 0.0876 |
| HK1_P19367_375_LGVEPSDDDCVSVQHVCTIVSFR (UniProt P19367) | -0.147 | 0.0649 |
| HERC1_Q15751_1941_CSSGIPLVGNLR (UniProt Q15751) | -0.231 | -0.896 |
| HINT2_Q9BX68_75_SLPADILYEDQQCLVFR (UniProt Q9BX68) | -0.0795 | 0.0377 |
| HEATR5B_Q9P2D3_471_CVAVALPFQLTPFLDR (UniProt Q9P2D3) | -0.074 | 0.189 |
| HDAC1_Q13547_12_VCYYYDGDVGNYYYGQGHPMK (UniProt Q13547) | 0.102 | 0.22 |
| HDDC2_Q7Z4H3_82_LALVHDMAECIVGDIAPADNIPK (UniProt Q7Z4H3) | 0.167 | -0.0308 |
| HK1_P19367_158_KLPVGFTFSFPCQQSK (UniProt P19367) | -0.153 | 0.124 |
| HINT3_Q9NQE9_66+73_QDPGTELLHCENEDLICFK (UniProt Q9NQE9) | -0.386 | -0.532 |
| HDHD3_Q9BSH5_109_DFSHPCTWQVLDGAEDTLR (UniProt Q9BSH5) | -0.47 | -1.92 |
| HMGCL_P35914_307_LLEAGNFICQALNR (UniProt P35914) | -0.0228 | 0.406 |
| HDDC2_Q7Z4H3_145_QLDQCEMILQASEYEDLEHKPGR (UniProt Q7Z4H3) | -0.0727 | 0.0582 |
| HDHD5_Q9BXW7_392_DLCFSPGLMEASHVVNDVNEAVQLVFRK (UniProt Q9BXW7) | -0.183 | -1.22 |
| HGH1_Q9BTY7_51_HVLALTGCGPGR (UniProt Q9BTY7) | -0.0673 | -0.0365 |
| HK1_P19367_834_AAQLCGAGMAAVVDK (UniProt P19367) | 0.0935 | 0.0681 |
| HGS_O14964_185_ACGQIFCGK (UniProt O14964) | 0.0596 | -0.0678 |
| HCK_P08631_395_AANILVSASLVCK (UniProt P08631) | 0.0556 | 0.0105 |
